Values quoted from earlier work in patent publication US9579356B2, “Dietary supplements for reducing cholesterol levels” (RELIV INTERNATIONAL INC., priority 2006, dated 2017).
For part of these data: At least one compound was matched to its structure with a doubt left. Some results were stated once for a whole list of compounds, not compound by compound.

How the values were obtained:
rats = settings: dietary supplementation
[1] = test system: patients with LDL-cholesterol levels exceeding 160 mg/dl; settings: after eight weeks; policosanol 10 mg/day, lovastatin 20 mg/day, simvastatin 10 mg/day

SMILES	lowering LDL cholesterol levels (rats)	lowering total cholesterol levels (rats)	reduced LDL-cholesterol levels [1]
O=C([O-])[C@@H](O)[C@@H](O)[C@H](O)[C@@H](O)C(=O)[O-].[Ca+2] [calcium D-glucarate]	30-35%	13-15%	
CCC(C)(C)C(=O)O[C@H]1C[C@@H](C)C=C2C=C[C@H](C)[C@H](CC[C@@H]3C[C@@H](O)CC(=O)O3)[C@H]21 [simvastatin]			about 15%
